Consider 42 sequences from paper PMC7819943, “Rice protein-binding microarrays: a tool to detect cis-acting elements near promoter regions in rice”.

The chains behind the UniProt entries cited, without tags or fusion partners.
UniProt Q0JBA9, entry or part of it: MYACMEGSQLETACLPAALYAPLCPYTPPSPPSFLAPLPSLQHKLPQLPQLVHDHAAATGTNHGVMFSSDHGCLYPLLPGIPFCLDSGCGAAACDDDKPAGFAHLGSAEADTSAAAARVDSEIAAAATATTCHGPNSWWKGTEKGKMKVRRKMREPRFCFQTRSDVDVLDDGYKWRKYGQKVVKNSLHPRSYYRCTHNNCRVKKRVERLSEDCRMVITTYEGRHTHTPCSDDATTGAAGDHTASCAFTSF

The list shows a part of the results.

The assay addresses OsWRKY34 (Oryza sativa, UniProt Q0JBA9 1-250). The experiment in a line: protein-binding microarray (RPBM); PBS, 2% BSA, 51.3 ng/ul salmon testes DNA, 50 uM zinc acetate, 200 nM TF, 25 C, 1 h; high values mean tight binding. The settings on record: protein: recombinant; tags: N-terminal polyhistidine and DsRed monomer fusion (pET32a); label: CyDye5-dUTP incorporated in the synthesized complementary strand; 3' TTTTT single-stranded linker to array surface; dsDNA, one strand shown. In outline:
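Binding signal here means per-feature fluorescence intensity in arbitrary units. The values were read on an Axon 4000B scanner after a custom Agilent array, double-stranded by primer extension with Cy5-dUTP, was incubated with 200 nM protein at 25 °C for 1 h in PBS with 2% BSA, salmon testes DNA and 50 µM zinc acetate, then washed. The proteins were transcription factors with an N-terminal polyhistidine tag and DsRed, expressed in E. coli BL21-CodonPlus and purified on Ni–NTA.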
In the case of “TGCTAGTCTTTTCTTCTTCTTTTTTCACTATCACGCAATTCGGAGTCACCTAGTGCAG”, the binding signal is 13100 fluorescence intensity (a.u.).

For the sequence “GCAACCTATTAAATGGTATTTTACCCTTGGCATTCTAGTCCGGAGTCACCTAGTGCAG”, the binding signal was 8170 fluorescence intensity (a.u.).

In the case of “CCAGCTGCGTGCAGCGTATCGCACCCAACCCGTCCATTCCCGGAGTCACCTAGTGCAG”, the binding signal is 8220 fluorescence intensity (a.u.).

Take “CACCCACGCTGCTCGGCTCGACACACATCGCCGCCTCGCCCGGAGTCACCTAGTGCAG”: the binding signal was 9220 fluorescence intensity (a.u.).

For the sequence “GTTAGAGTTTAACTTTTGGGCGTGGTTTCGATTTTTCTGCCGGAGTCACCTAGTGCAG”, the binding signal is 9490 fluorescence intensity (a.u.).

For the sequence “GCATATTGCAAGTAGCTGTTATCTCTTGCTTTACCTCTTGCGGAGTCACCTAGTGCAG”, the binding signal is 8090 fluorescence intensity (a.u.).

On to “TCCACCACCACCTTCCTGTTCGGCTCGTCCTTCTTCTTCGCGGAGTCACCTAGTGCAG”, for which the binding signal is 10400 fluorescence intensity (a.u.).

Consider “ATATCTGGTTTTACGGTTCGAGGACGTTTTTATATCCCGACGGAGTCACCTAGTGCAG”, for which the binding signal was 8110 fluorescence intensity (a.u.).

With “CCCTTTCTTCACCATTTACTACTACTGCTCATCCTTCAAACGGAGTCACCTAGTGCAG”, the binding signal was 8240 fluorescence intensity (a.u.).

Consider “ACACCCTCACATGTCCGTGCCTAACAGCCATCACACACGTCGGAGTCACCTAGTGCAG”, for which the binding signal is 9780 fluorescence intensity (a.u.).

Regarding “ATTTGCAGTGATCGTTTCTATCTCCGGCGACGTTTCTTGACGGAGTCACCTAGTGCAG”, the binding signal was 8430 fluorescence intensity (a.u.).

Turning to “AATTTGCAAGCCACATGTTCTGGTGACTTTCACTCACTCACGGAGTCACCTAGTGCAG”, the binding signal is 9870 fluorescence intensity (a.u.).

For “CGATAAAGAAAAATGTGTTGTGTGGGTGACTGTTTGACTGCGGAGTCACCTAGTGCAG”, the binding signal is 10900 fluorescence intensity (a.u.).

In the case of “TAATCTCGACTGCTCTCGCTCCTTGATCTGGTCTTCTTTTCGGAGTCACCTAGTGCAG”, the binding signal was 11900 fluorescence intensity (a.u.).

As for “CACTCTCTCTCTCTCTCACCTCCCTGACACTAAACTGGTTCGGAGTCACCTAGTGCAG”, the binding signal was 8350 fluorescence intensity (a.u.).

Consider “TGAACAACTTTTCGTCATGTCTAACTTCCCTTTCAGCAAACGGAGTCACCTAGTGCAG”, for which the binding signal is 8350 fluorescence intensity (a.u.).

As to “TTTTTTCTCGCACTGTTTAACCACTCGTCTTATTTAAAAACGGAGTCACCTAGTGCAG”, the binding signal was 8330 fluorescence intensity (a.u.).

Turning to “CTTGCTTTCTTTCACTGCTGCCATTCACAAATTGGCAAGACGGAGTCACCTAGTGCAG”, the binding signal is 8490 fluorescence intensity (a.u.).

With “CTCTCCTGCCCACGCTACTGTTCATCTTCCAGCGCCAGACCGGAGTCACCTAGTGCAG”, the binding signal is 9820 fluorescence intensity (a.u.).

In the case of “CTCTCTCTCTCACTGTCCACATCTCTCCAACAAGAGAAATCGGAGTCACCTAGTGCAG”, the binding signal was 8860 fluorescence intensity (a.u.).

With “TCCGATAACTCCACCGCCGCTCCACCTCCAAGTCCAGTTACGGAGTCACCTAGTGCAG”, the binding signal was 16300 fluorescence intensity (a.u.).

“ATGACACCAACGAATCGATTTTATGTATCCGCCATTGCCTCGGAGTCACCTAGTGCAG”: the binding signal was 9580 fluorescence intensity (a.u.).

Take “GTTGACGATTAAAACAAACCAGTGTTTGACTTTCTTACTGCGGAGTCACCTAGTGCAG”: the binding signal was 8150 fluorescence intensity (a.u.).

As for “GTCCTGCTGCTTCCGCCGCCGCCACCGTCCTGCTGCTTCCCGGAGTCACCTAGTGCAG”, the binding signal is 9500 fluorescence intensity (a.u.).

In the case of “GTCCAACTGTCAGTGTGTGTGTGTCACGCGTTCTTCTGACCGGAGTCACCTAGTGCAG”, the binding signal was 10700 fluorescence intensity (a.u.).

On to “TGACTGATTCTTCTTTGTTGACTTTGTTTTTATAACCTTTCGGAGTCACCTAGTGCAG”, for which the binding signal was 12600 fluorescence intensity (a.u.).

On to “ATCCTCATCGATCAAAGGTGCTCCGTCGCTTCATGTTCAACGGAGTCACCTAGTGCAG”, for which the binding signal was 8170 fluorescence intensity (a.u.).

On to “CGGCCTGCCTGGCTAGCGTTTCGGCCCATCGATCCGCGCGCGGAGTCACCTAGTGCAG”, for which the binding signal is 8510 fluorescence intensity (a.u.).

On to “GATTTTTTTCTGCTGAATTTGTTCGTCCGTTTCAGTTGGACGGAGTCACCTAGTGCAG”, for which the binding signal is 9690 fluorescence intensity (a.u.).

As for “GGTGTTTGGTTGGAGGGATTAAAGTGGGGCTAAACTTTAGCGGAGTCACCTAGTGCAG”, the binding signal was 9950 fluorescence intensity (a.u.).

Turning to “GCTTACTTAGGCTGCTCGCTCACGACTTGTTCCTTCCTTACGGAGTCACCTAGTGCAG”, the binding signal is 9820 fluorescence intensity (a.u.).

Regarding “CTATTACAGGTGCGGTGGGCGGTCTCTTGCTTCTTACAATCGGAGTCACCTAGTGCAG”, the binding signal was 12800 fluorescence intensity (a.u.).

As to “CTCTCCTCCCTATTCTTTTCCTTTCCTCTCCTTTCCTTTCCGGAGTCACCTAGTGCAG”, the binding signal is 8870 fluorescence intensity (a.u.).

As for “GCGAGCAAGATTGGAATCAGCGTGGTGGTGGTAGGGGAGGCGGAGTCACCTAGTGCAG”, the binding signal was 9480 fluorescence intensity (a.u.).

“AGCTCGTAATTTGTATGGGTTGTAAATTGATTTCATGTAACGGAGTCACCTAGTGCAG”: the binding signal is 9890 fluorescence intensity (a.u.).

Take “AGCCAATCCCCAGCCTGTCCATTTGAATCATTACATTTAGCGGAGTCACCTAGTGCAG”: the binding signal is 8160 fluorescence intensity (a.u.).

Take “GTTCCAGCCGCGTTTCCTCTCGCGGCGGCCTCGCCATTTCCGGAGTCACCTAGTGCAG”: the binding signal was 9070 fluorescence intensity (a.u.).

Regarding “ATTCTGTAACCCGCTGCGGGCAACGGCCGGACGTGCAATCCGGAGTCACCTAGTGCAG”, the binding signal is 9630 fluorescence intensity (a.u.).

On to “AAAAGAAGCAAGGACCTTCCCTACTCAACTCACTCATTCACGGAGTCACCTAGTGCAG”, for which the binding signal was 8120 fluorescence intensity (a.u.).

On to “TTGTGGATTTTTTTTTTTTGAGAGGGATGGGTGTTTGATTCGGAGTCACCTAGTGCAG”, for which the binding signal was 10900 fluorescence intensity (a.u.).

For the sequence “TATCCGTTCTAGCGAGGGACCAAATTTCTCACCAGATTTCCGGAGTCACCTAGTGCAG”, the binding signal was 8700 fluorescence intensity (a.u.).

Turning to “TTGCCAACATGTATACCCGTCGGATTAGTTGACCGTGAAACGGAGTCACCTAGTGCAG”, the binding signal was 10800 fluorescence intensity (a.u.).
